# Reference: the supplement of paper PMC8728848
# Some of the results follow.
# B1: S100A12 (Homo sapiens), P80511 (protein)
# chain: MTKLEEHLEGIVNIFHQYSVRKGHFDTLSKGELKQLLTKELANTIKNIKDKAVIDEIFQGLDANQDEQVDFQEFISLVAIALKAAHYHTHKE
# How the values were obtained:
# Assay in all cases: glycan array binding signal (z-score within array); higher = stronger binding
# Details in all cases: glycan notation: IUPAC condensed, linker removed
# [1] = biological target: Gal(b1-3)GalNAc(b1-3)Gal(b1-4)GlcNAc
# In short: (§1)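 Arrays were curated from the Consortium for Functional Glycomics database, 3228 in total, and kept only where the protein sequence was available. Binding is expressed as a within-array Z-score. This score was averaged across arrays of the same protein sequence at different concentrations or buffers and across linkers, and negative values can be read as non-binding.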
# [2] = biological target: Gal(b1-3)GalNAc(b1-4)Gal(b1-4)Glc
# In short: as §1
# [3] = biological target: Gal(b1-3)GalNAc(b1-4)[Neu5Ac(a2-3)]Gal(b1-4)Glc
# In short: as §1
# [4] = biological target: Gal(b1-3)GlcNAc
# In short: as §1
# [5] = biological target: Gal(b1-3)GlcNAc(b1-3)Gal(b1-3)GlcNAc
# In short: as §1
# [6] = biological target: Gal(b1-3)GlcNAc(b1-3)Gal(b1-4)Glc
# In short: as §1
# [7] = biological target: Gal(b1-3)GlcNAc(b1-3)Gal(b1-4)GlcNAc
# In short: as §1
# [8] = biological target: Gal(b1-3)[Fuc(a1-4)]GlcNAc
# In short: as §1
# [9] = biological target: Gal(b1-3)[Fuc(a1-4)]GlcNAc(b1-3)Gal(b1-3)[Fuc(a1-4)]GlcNAc
# In short: as §1
# [10] = biological target: Gal(b1-3)[Fuc(a1-4)]GlcNAc(b1-3)Gal(b1-4)GlcNAc
# In short: as §1
# [11] = biological target: Gal(b1-3)[Fuc(a1-4)]GlcNAc(b1-3)Gal(b1-4)[Fuc(a1-3)]GlcNAc
# In short: as §1
# [12] = biological target: Gal(b1-3)[GlcNAc(b1-6)]GalNAc
# In short: as §1
# [13] = biological target: Gal(b1-3)[GlcNAc(b1-6)]GlcNAc
# In short: as §1
# [14] = biological target: Gal(b1-3)[Neu5Ac(a2-6)]GalNAc
# In short: as §1
# [15] = biological target: Gal(b1-3)[Neu5Ac(a2-6)]GlcNAc
# In short: as §1
# [16] = biological target: Gal(b1-3)[Neu5Ac(a2-6)]GlcNAc(a1-4)Gal(b1-4)Glc
# In short: as §1
# [17] = biological target: Gal(b1-3)[Neu5Ac(a2-6)]GlcNAc(b1-6)Gal(b1-4)Glc
# In short: as §1
# [18] = biological target: Gal(b1-3)[Neu5Ac(b2-6)]GalNAc
# In short: as §1
# [19] = biological target: Gal(b1-3)[Neu5Ac(b2-6)]GlcNAc
# In short: as §1
# [20] = biological target: Gal(b1-4)GalNAc(a1-3)[Fuc(a1-2)]Gal(b1-4)GlcNAc
# In short: as §1
# [21] = biological target: Gal(b1-4)GalNAc(b1-3)[Fuc(a1-2)]Gal(b1-4)GlcNAc
# In short: as §1
# [22] = biological target: Gal(b1-4)Glc
# In short: as §1
# [23] = biological target: Gal(b1-4)Glc6S
# In short: as §1
# [24] = biological target: Gal(b1-4)GlcNAc
# In short: as §1
# [25] = biological target: Gal(b1-4)GlcNAc(b1-2)Man(a1-3)[Gal(b1-4)GlcNAc(b1-2)Man(a1-6)]Man(b1-4)GlcNAc(b1-4)GlcNAc
# In short: as §1
# [26] = biological target: Gal(b1-4)GlcNAc(b1-3)Gal(b1-3)GlcNAc
# In short: as §1
# [27] = biological target: Gal(b1-4)GlcNAc(b1-3)Gal(b1-4)Glc
# In short: as §1
# [28] = biological target: Gal(b1-4)GlcNAc(b1-3)Gal(b1-4)GlcNAc
# In short: as §1
# [29] = biological target: Gal(b1-4)GlcNAc(b1-3)Gal(b1-4)GlcNAc(b1-3)Gal(b1-4)GlcNAc
# In short: as §1
# [30] = biological target: Gal(b1-4)GlcNAc(b1-3)Gal(b1-4)[Fuc(a1-3)]GlcNAc(b1-3)Gal(b1-4)[Fuc(a1-3)]GlcNAc
# In short: as §1
# [31] = biological target: Gal(b1-4)GlcNAc(b1-3)GalNAc
# In short: as §1
# [32] = biological target: Gal(b1-4)GlcNAc(b1-3)[Gal(b1-4)GlcNAc(b1-6)]GalNAc
# In short: as §1
# [33] = biological target: Gal(b1-4)GlcNAc(b1-6)Gal(b1-4)GlcNAc(b1-6)GalNAc
# In short: as §1
# [34] = biological target: Gal(b1-4)GlcNAc(b1-6)GalNAc
# In short: as §1
# [35] = biological target: Gal(b1-4)GlcNAc(b1-6)[Gal(b1-3)]GalNAc
# In short: as §1
# [36] = biological target: Gal(b1-4)GlcNAc(b1-6)[Gal(b1-3)]GlcNAc
# In short: as §1
# [37] = biological target: Gal3S(b1-3)GalNAc
# In short: as §1
# [38] = biological target: Gal3S(b1-3)GlcNAc
# In short: as §1
# [39] = biological target: Gal3S(b1-3)[Fuc(a1-4)]GlcNAc
# In short: as §1
# [40] = biological target: Gal3S(b1-4)Glc
# In short: as §1
# [41] = biological target: Gal3S(b1-4)Glc6S
# In short: as §1
# [42] = biological target: Gal3S(b1-4)GlcNAc
# In short: as §1
# [43] = biological target: Gal3S(b1-4)GlcNAc6S
# In short: as §1
# [44] = biological target: Gal3S6S(b1-4)GlcNAc
# In short: as §1
# [45] = biological target: Gal3S6S(b1-4)GlcNAc6S
# In short: as §1
binder,measurement,setting,value
B1,glycan array binding signal (z-score),[1],-0.39
same,glycan array binding signal (z-score),[2],-0.592
same,glycan array binding signal (z-score),[3],-0.75
same,glycan array binding signal (z-score),[4],-0.781
same,glycan array binding signal (z-score),[5],-0.702
same,glycan array binding signal (z-score),[6],-0.959
same,glycan array binding signal (z-score),[7],-0.762
same,glycan array binding signal (z-score),[8],-0.707
same,glycan array binding signal (z-score),[9],-0.544
same,glycan array binding signal (z-score),[10],-0.319
same,glycan array binding signal (z-score),[11],-0.056
same,glycan array binding signal (z-score),[12],-0.516
same,glycan array binding signal (z-score),[13],-0.491
same,glycan array binding signal (z-score),[14],-0.459
same,glycan array binding signal (z-score),[15],-0.34
same,glycan array binding signal (z-score),[16],-0.277
same,glycan array binding signal (z-score),[17],-0.42
same,glycan array binding signal (z-score),[18],0.585
same,glycan array binding signal (z-score),[19],-0.479
same,glycan array binding signal (z-score),[20],-0.549
same,glycan array binding signal (z-score),[21],-0.523
same,glycan array binding signal (z-score),[22],0.655
same,glycan array binding signal (z-score),[23],0.919
same,glycan array binding signal (z-score),[24],-0.535
same,glycan array binding signal (z-score),[25],-0.82
same,glycan array binding signal (z-score),[26],-0.391
same,glycan array binding signal (z-score),[27],-0.554
same,glycan array binding signal (z-score),[28],-0.526
same,glycan array binding signal (z-score),[29],-0.226
same,glycan array binding signal (z-score),[30],-0.064
same,glycan array binding signal (z-score),[31],-0.812
same,glycan array binding signal (z-score),[32],-0.703
same,glycan array binding signal (z-score),[33],-0.768
same,glycan array binding signal (z-score),[34],-0.528
same,glycan array binding signal (z-score),[35],-0.655
same,glycan array binding signal (z-score),[36],-0.243
same,glycan array binding signal (z-score),[37],0.207
same,glycan array binding signal (z-score),[38],0.125
same,glycan array binding signal (z-score),[39],0.019
same,glycan array binding signal (z-score),[40],1.05
same,glycan array binding signal (z-score),[41],2.45
same,glycan array binding signal (z-score),[42],-0.018
same,glycan array binding signal (z-score),[43],2.67
same,glycan array binding signal (z-score),[44],1.74
same,glycan array binding signal (z-score),[45],2.83

# Some of the entries so far, with bars between the fields:
binder | measurement | setting | value
B1 | glycan array binding signal (z-score) | [17] | -0.42
same | glycan array binding signal (z-score) | [42] | -0.018
